The target in the assay is T1, HA-PKCζ (protein kinase C zeta), wild type (human) (UniProt Q05513).
T1 sequence: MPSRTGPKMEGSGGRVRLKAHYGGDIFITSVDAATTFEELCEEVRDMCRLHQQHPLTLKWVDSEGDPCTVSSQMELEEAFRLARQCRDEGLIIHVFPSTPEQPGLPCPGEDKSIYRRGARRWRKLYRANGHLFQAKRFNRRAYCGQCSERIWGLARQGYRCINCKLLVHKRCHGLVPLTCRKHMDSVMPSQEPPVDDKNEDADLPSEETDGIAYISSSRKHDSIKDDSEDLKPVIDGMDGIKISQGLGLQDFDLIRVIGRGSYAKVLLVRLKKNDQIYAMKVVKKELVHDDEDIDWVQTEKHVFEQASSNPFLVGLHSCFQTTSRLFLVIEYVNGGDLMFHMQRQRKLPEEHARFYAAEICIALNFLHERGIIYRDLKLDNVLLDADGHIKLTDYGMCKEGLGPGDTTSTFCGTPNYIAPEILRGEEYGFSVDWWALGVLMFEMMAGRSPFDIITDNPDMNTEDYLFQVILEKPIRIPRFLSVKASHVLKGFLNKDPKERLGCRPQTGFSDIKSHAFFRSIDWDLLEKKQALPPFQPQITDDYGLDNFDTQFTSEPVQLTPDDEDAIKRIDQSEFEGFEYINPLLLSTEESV
The assay is described as follows: co-IP; 293T cells transfected with HA-PKCζ (wild type, C48A or deletion mutants); exogenous Co-IP: anti-HA beads or anti-Flag beads with equal amounts of total protein overnight, washed three times (20 mmol/L Tris-HCl, 250 mmol/L NaCl, 0.2 mmol/L EGTA, 0.1% Nonidet P-40), western blot; cells untreated or treated with glucose starvation 2 h, metformin 10 mmol/L 12 h, NAC 10 mmol/L, H2O2 1 mmol/L 30 min. Background: In western blotting, separated proteins are transferred to a membrane and probed.

Amino acid sequences for entries named in this document (tags omitted).
UniProt P52294: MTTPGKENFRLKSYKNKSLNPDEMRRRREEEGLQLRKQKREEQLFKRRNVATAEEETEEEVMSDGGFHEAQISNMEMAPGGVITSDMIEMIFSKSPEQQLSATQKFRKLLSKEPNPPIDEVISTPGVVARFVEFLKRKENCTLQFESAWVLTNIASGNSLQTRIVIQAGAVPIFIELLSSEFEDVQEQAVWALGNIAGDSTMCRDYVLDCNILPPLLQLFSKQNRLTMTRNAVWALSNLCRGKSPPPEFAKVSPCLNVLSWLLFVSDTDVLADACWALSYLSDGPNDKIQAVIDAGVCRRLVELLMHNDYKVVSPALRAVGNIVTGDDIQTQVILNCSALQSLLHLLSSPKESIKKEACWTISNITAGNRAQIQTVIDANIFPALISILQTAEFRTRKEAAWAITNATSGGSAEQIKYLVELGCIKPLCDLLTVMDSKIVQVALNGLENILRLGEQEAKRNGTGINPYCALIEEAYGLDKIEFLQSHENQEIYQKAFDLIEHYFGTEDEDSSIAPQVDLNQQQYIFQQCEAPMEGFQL
UniProt O00629: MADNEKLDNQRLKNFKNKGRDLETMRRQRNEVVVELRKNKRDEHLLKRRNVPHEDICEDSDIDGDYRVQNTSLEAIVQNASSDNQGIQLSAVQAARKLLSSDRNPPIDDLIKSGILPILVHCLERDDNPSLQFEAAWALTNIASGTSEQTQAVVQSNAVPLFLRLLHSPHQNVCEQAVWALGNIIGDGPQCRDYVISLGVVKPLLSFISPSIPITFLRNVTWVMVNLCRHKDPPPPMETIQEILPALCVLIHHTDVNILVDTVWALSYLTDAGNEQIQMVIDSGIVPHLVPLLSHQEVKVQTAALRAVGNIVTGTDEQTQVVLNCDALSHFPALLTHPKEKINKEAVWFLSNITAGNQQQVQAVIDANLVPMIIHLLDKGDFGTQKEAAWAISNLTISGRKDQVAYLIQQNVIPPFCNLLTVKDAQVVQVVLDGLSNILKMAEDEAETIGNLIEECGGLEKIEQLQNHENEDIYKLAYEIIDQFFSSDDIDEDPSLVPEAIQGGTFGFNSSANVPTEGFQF

These are yes or no findings as the source states them, for the method shown. In cells and extracts the contact can be indirect. Tags and fused reporters may be left off the sequences shown.

In the case of “KPNA1 (importin α5) (from UniProt P52294 1-538)”, the binding entry is reported as “no binding”. With “KPNA4 (importin α3) (from UniProt O00629 1-521)”, the binding entry is reported as “no binding”.

For the origin of these results see article PMC12507020.
